{
  "source": "paper PMC6232491",
  "binders": {"B1": {"name": "AtDRP2A in the membrane yeast two-hybrid (protein, UniProt Q9SE83 1-914)", "chain": "MEAIDELSQLSDSMKQAASLLADEDPDETSSSKRPATFLNVVALGNVGAGKSAVLNSLIGHPVLPTGENGATRAPIIIELSRESSLSSKAIILQIDNKSQQVSASALRHSLQDRLSKGASGKNRDEINLKLRTSTAPPLKLVDLPGLDQRIVDESMIAEYAQHNDAILLVIVPASQASEISSSRALKIAKEYDPESTRTIGIIGKIDQAAENSKALAAVQALLSNQGPPKTTDIPWVAVIGQSVSIASAQSGSGENSLETAWRAESESLKSILTGAPQSKLGRIALVDTLASQIRSRMKLRLPSVLSGLQGKSQIVQDELARLGEQLVNSAEGTRAIALELCREFEDKFLLHLAGGEGSGWKVVASFEGNFPNRIKQLPLDRHFDLNNVKRVVLEADGYQPYLISPEKGLRSLIKIVLELAKDPARLCVDEVHRVLVDIVSASANATPGLGRYPPFKREVVAIASAALDGFKNEAKKMVVALVDMERAFVPPQHFIRLVQRRMERQRREEELKGRSSKKGQDAEQSLLSRATSPQPDGPTAGGSLKSMKDKPSPQDKETPEVSGLKTAGPEGEITAGYLMKKSAKTNGWSRRWFVLNEKTGKLGYTKKQEERNFRGTITLEECTIEEIPEDEVEKSKSSKDKKANGPDSKGPGLVFKITCKVPYKTVLKAHNALVLKAESVVDKNEWINKLQKVIQARGGQVGSVSMRQSLSEGSLDKMVRKPIDPEEELRWMSQEVRGYVEAVLNSLAANVPKAVVLCQVEKAKEDMLNQLYSSISAIGNERIESLIQEDQNVKRRRERYQKQSSLLSKLTRQLSIHDNRAAAASSYSDNSGTESSPRASGGSSGDDWMNAFNSAANGPSDSLSKYGSGGHSRRYSDPAQNGDAASPGSGSNRRTTPNRLPPAPPPTGSAYRY"}, "B2": {"name": "YFP-AtDRP2A (protein, UniProt Q9SE83 1-914)", "chain": "B1 chain"}, "B3": {"name": "GmSDL5A, prey of the split-ubiquitin membrane yeast two-hybrid (protein, UniProt Q39828 1-610)", "chain": "MENLISLVNKIQRACTALGDHGENSALPTLWDSLPAIAVVGGQSSGKSSVLESVVGKDFLPRGSGIVTRRPLVLQLHKIEEGSREYAEFLHLPRKRFTDFVAVRKEIQDETDRETGRTKQISTVPIHLSIYSPNVVNLTLVDLPGLTKVAVEGQPDSIVKDIEDMVRSYIEKPNCIILAISPANQDLATSDAIKISREVDPTGDRTIGVLTKIDLMDKGTDAVDILEGRAYRLKFPWIGVVNRSQQDINKNVDMIAARRREREYFNSTPEYKHLANRMGSEHLAKMLSKHLETVIKSKIPGIQSLINKTIAELEAELTRLGKPVAADAGGKLYAIMEICRSFDQIFKDHLDGVRPGGDKIYNVFDNQLPAALKRLQFDKQLSMENIRKLITEADGYQPHLIAPEQGYRRLIESSLITIRGPAEAAVDAVHSLLKDLVHKAISETLDLKQYPGLRVEVGAAAVDSLERMRDESKRATLQLVDMECGYLTVDFFRKLPQDVDKGGNPTHSIFDRYNDSYLRRIGTTILSYVNMVCATLRNSIPKSIVYCQVREAKRSLLDHFFTELGKMETKRLSSLLNEDPAIMERRSALAKRLELYRSAQAEIDAVAWSK"}},
  "key": {"[1]": {"target": "TuMV 6K2 in the membrane yeast two-hybrid (Turnip mosaic virus)", "assay": "two-hybrid; membrane yeast two-hybrid (mYTH) of AtDRP2A with each of 11 TuMV-encoded proteins; bait and prey not stated"}, "[2]": {"target": "TuMV P1 in the membrane yeast two-hybrid (Turnip mosaic virus)", "assay": "two-hybrid; membrane yeast two-hybrid (mYTH) of AtDRP2A with each of 11 TuMV-encoded proteins; bait and prey not stated"}, "[3]": {"target": "TuMV CI in the membrane yeast two-hybrid (Turnip mosaic virus)", "assay": "two-hybrid; membrane yeast two-hybrid (mYTH) of AtDRP2A with each of 11 TuMV-encoded proteins; bait and prey not stated"}, "[4]": {"target": "TuMV VPg in the membrane yeast two-hybrid (Turnip mosaic virus)", "assay": "two-hybrid; membrane yeast two-hybrid (mYTH) of AtDRP2A with each of 11 TuMV-encoded proteins; bait and prey not stated"}, "[5]": {"target": "TuMV CP in the membrane yeast two-hybrid (Turnip mosaic virus)", "assay": "two-hybrid; membrane yeast two-hybrid (mYTH) of AtDRP2A with each of 11 TuMV-encoded proteins; bait and prey not stated"}, "[6]": {"target": "TuMV 6K2 with a 3× flag tag (Turnip mosaic virus)", "assay": "co-IP; TuMV proteins with C-terminal 3x flag and N-terminal YFP-AtDRP2A coexpressed in N. benthamiana leaves, 2.5 days postinfiltration; anti-Flag M2 affinity gel; blots with anti-Flag or anti-GFP"}, "[7]": {"target": "TuMV VPg with a 3× flag tag (Turnip mosaic virus)", "assay": "co-IP; TuMV proteins with C-terminal 3x flag and N-terminal YFP-AtDRP2A coexpressed in N. benthamiana leaves, 2.5 days postinfiltration; anti-Flag M2 affinity gel; blots with anti-Flag or anti-GFP"}, "[8]": {"target": "TuMV CI with a 3× flag tag (Turnip mosaic virus)", "assay": "co-IP; TuMV proteins with C-terminal 3x flag and N-terminal YFP-AtDRP2A coexpressed in N. benthamiana leaves, 2.5 days postinfiltration; anti-Flag M2 affinity gel; blots with anti-Flag or anti-GFP"}, "[9]": {"target": "TuMV CP with a 3× flag tag (Turnip mosaic virus)", "assay": "co-IP; TuMV proteins with C-terminal 3x flag and N-terminal YFP-AtDRP2A coexpressed in N. benthamiana leaves, 2.5 days postinfiltration; anti-Flag M2 affinity gel; blots with anti-Flag or anti-GFP"}, "[10]": {"target": "SMV CI, bait of the split-ubiquitin membrane yeast two-hybrid (Soybean mosaic virus (SMV-L))", "assay": "two-hybrid; split-ubiquitin membrane-based yeast two-hybrid, NMY51; SMV proteins as baits (pBT3-STE), GmSDL5A as prey (pPR3-N); medium lacking Leu, Trp, His and Ade, with 3AT"}, "[11]": {"target": "SMV NIb, bait of the split-ubiquitin membrane yeast two-hybrid (Soybean mosaic virus (SMV-L))", "assay": "two-hybrid; split-ubiquitin membrane-based yeast two-hybrid, NMY51; SMV proteins as baits (pBT3-STE), GmSDL5A as prey (pPR3-N); medium lacking Leu, Trp, His and Ade, with 3AT"}, "[12]": {"target": "SMV CP, bait of the split-ubiquitin membrane yeast two-hybrid (Soybean mosaic virus (SMV-L))", "assay": "two-hybrid; split-ubiquitin membrane-based yeast two-hybrid, NMY51; SMV proteins as baits (pBT3-STE), GmSDL5A as prey (pPR3-N); medium lacking Leu, Trp, His and Ade, with 3AT"}, "[13]": {"target": "SMV HC-Pro, bait of the split-ubiquitin membrane yeast two-hybrid (Soybean mosaic virus (SMV-L))", "assay": "two-hybrid; split-ubiquitin membrane-based yeast two-hybrid, NMY51; SMV proteins as baits (pBT3-STE), GmSDL5A as prey (pPR3-N); medium lacking Leu, Trp, His and Ade, with 3AT"}, "[14]": {"target": "SMV 6K2, bait of the split-ubiquitin membrane yeast two-hybrid (Soybean mosaic virus (SMV-L))", "assay": "two-hybrid; split-ubiquitin membrane-based yeast two-hybrid, NMY51; SMV proteins as baits (pBT3-STE), GmSDL5A as prey (pPR3-N); medium lacking Leu, Trp, His and Ade, with 3AT"}, "[15]": {"target": "SMV NIa-Pro, bait of the split-ubiquitin membrane yeast two-hybrid (Soybean mosaic virus (SMV-L))", "assay": "two-hybrid; split-ubiquitin membrane-based yeast two-hybrid, NMY51; SMV proteins as baits (pBT3-STE), GmSDL5A as prey (pPR3-N); medium lacking Leu, Trp, His and Ade, with 3AT"}, "[16]": {"target": "SMV VPg, bait of the split-ubiquitin membrane yeast two-hybrid (Soybean mosaic virus (SMV-L))", "assay": "two-hybrid; split-ubiquitin membrane-based yeast two-hybrid, NMY51; SMV proteins as baits (pBT3-STE), GmSDL5A as prey (pPR3-N); medium lacking Leu, Trp, His and Ade, with 3AT"}, "[17]": {"target": "SMV P3N-PIPO, bait of the split-ubiquitin membrane yeast two-hybrid (Soybean mosaic virus (SMV-L))", "assay": "two-hybrid; split-ubiquitin membrane-based yeast two-hybrid, NMY51; SMV proteins as baits (pBT3-STE), GmSDL5A as prey (pPR3-N); medium lacking Leu, Trp, His and Ade, with 3AT"}, "[18]": {"target": "SMV P1, bait of the split-ubiquitin membrane yeast two-hybrid (Soybean mosaic virus (SMV-L))", "assay": "two-hybrid; split-ubiquitin membrane-based yeast two-hybrid, NMY51; SMV proteins as baits (pBT3-STE), GmSDL5A as prey (pPR3-N); medium lacking Leu, Trp, His and Ade, with 3AT"}, "[19]": {"target": "SMV P3, bait of the split-ubiquitin membrane yeast two-hybrid (Soybean mosaic virus (SMV-L))", "assay": "two-hybrid; split-ubiquitin membrane-based yeast two-hybrid, NMY51; SMV proteins as baits (pBT3-STE), GmSDL5A as prey (pPR3-N); medium lacking Leu, Trp, His and Ade, with 3AT"}, "[20]": {"target": "SMV 6K1, bait of the split-ubiquitin membrane yeast two-hybrid (Soybean mosaic virus (SMV-L))", "assay": "two-hybrid; split-ubiquitin membrane-based yeast two-hybrid, NMY51; SMV proteins as baits (pBT3-STE), GmSDL5A as prey (pPR3-N); medium lacking Leu, Trp, His and Ade, with 3AT"}},
  "note": "Results are given in words; binding and its absence hold for the method and conditions named. For some assays here: Binding can be weak; no strength is given. For some assays here: In cells and extracts the contact can be indirect. For some assays here: Sequences can lack the tags named with a protein.",
  "data": [
    {"binder": "B1", "values": [
      {"measurement": "binding", "setting": "[1]", "value": "binds"},
      {"measurement": "binding", "setting": "[2]", "value": "binds"},
      {"measurement": "binding", "setting": "[3]", "value": "binds"},
      {"measurement": "binding", "setting": "[4]", "value": "binds"},
      {"measurement": "binding", "setting": "[5]", "value": "binds"}
    ]},
    {"binder": "B2", "values": [
      {"measurement": "binding", "setting": "[6]", "value": "binds"},
      {"measurement": "binding", "setting": "[7]", "value": "binds"},
      {"measurement": "binding", "setting": "[8]", "value": "binds"},
      {"measurement": "binding", "setting": "[9]", "value": "binds"}
    ]},
    {"binder": "B3", "values": [
      {"measurement": "binding", "setting": "[10]", "value": "binds"},
      {"measurement": "binding", "setting": "[11]", "value": "no binding"},
      {"measurement": "binding", "setting": "[12]", "value": "binds"},
      {"measurement": "binding", "setting": "[13]", "value": "no binding"},
      {"measurement": "binding", "setting": "[14]", "value": "no binding"},
      {"measurement": "binding", "setting": "[15]", "value": "no binding"},
      {"measurement": "binding", "setting": "[16]", "value": "binds"},
      {"measurement": "binding", "setting": "[17]", "value": "no binding"},
      {"measurement": "binding", "setting": "[18]", "value": "no binding"},
      {"measurement": "binding", "setting": "[19]", "value": "no binding"},
      {"measurement": "binding", "setting": "[20]", "value": "no binding"}
    ]}
  ]
}
